Assay results as given in publication PMC13171625, “Breaking the ‘rule-of-five’ to access bridged bicyclic heteroaromatic bioisosteres” (Nature Synthesis, 2026).

Experiment: Metabolic stability in human liver microsomes

- Remaining (T60) (60 min, human liver microsomes with NADPH): 0.1%
- Remaining (NCF60) (1 h incubation, human liver microsomes, no co-factor (no NADPH)): 105.2%
- remaining at 5 min, 1 μM (human, liver microsomes): 82.1%
- remaining at 0.25 h, 1 μM (human, liver microsomes): 53.2%
- remaining at 0.5 h, 1 μM (human, liver microsomes): 19.5%
- remaining at 0.75 h, 1 μM (human, liver microsomes): 2.5%
SMILES: CCCNCC(O)COc1ccccc1C(=O)CCc1ccccc1 (stereo not drawn) [Propafenone]
